Measured values from US20220017616A1.
These are yes or no findings as the source states them, for the method shown. Binding calls can cover weak binding; strength is not graded here.

Key:
[1] = molecular target: cynomolgus monkey CD112R (cynomolgus monkey); assay: flow cytometry, titration on activated cyno PBMCs
[2] = molecular target: cynomolgus monkey CD112R (cynomolgus monkey); assay: flow cytometry, recombinant cyno CD112R transiently expressed on HEK293T cells
human CD112R (human) [3] = assay: flow cytometry, titration on activated primary human T cells
human CD112R (human) [4] = assay: flow cytometry, human CD112R transiently expressed on 293T cells
[5] = molecular target: cynomolgus monkey CD112R (cynomolgus monkey); assay: flow cytometry on primary cyno T-cells

Measured: binding

B1: 1E1 (antibody, V domains shown)
VH: QVQLVQSGAEVKKPGASVKVSCQASGYTFTDYYIYWVRQAPGQGLEWMGWINPNSGGTNYAQKFQGRVTMTRDTSISTAYIELSRLRSDDTAVYYCAREDNFNGMDVWGQGTTVTVSS
VL: DIQMTQSPSSLSASVGDRVTITCRASQGIRNDLGWYQQKPGKAPKRLIYAASSLQSGVPSRFSGSGSGTEFTLTISSLQPEDFATYYCLQLNSYPLTFGGGTKVEIKR
binds: all assays above
